Some of the results follow. These are further read-outs of the screen, such as a control signal, another cell line or another target. No call is given for them. Compounds called inactive in the main read-out are mostly missing here. The note in brackets gives the kind of curve behind each potency; many fits are weak.
Test: qHTS Assay for Lipid Storage Modulators in Drosophila S3 Cells;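 as to cell number change: cells counted by Cell Tracker Red CMTPX staining in the red channel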
Conditions: BODIPY lipid droplet fluorescence, 18-24 h; for cell number change: measured here: cell count max response, cells fed with added oleic acid
Outline: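 Laser-scanning cytometry quantifies lipid droplet accumulation (500–530 nm total intensity; droplet/cell object ratio) in oleic acid-fed (400 uM added) Drosophila S3 cells treated with a concentration series. 20 uM Triacsin C defined 100% inhibition.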

[1] = measured here: cell number channel AC50, cells fed with added oleic acid
[2] = measured here: lipid fluorescence (Fed channel) AC50, cells fed with added oleic acid

| Structure (SMILES) | cell number change | AC50 [1] | AC50 [2] |
| --- | --- | --- | --- |
| Cc1ccc2c(c1)C1CN(C)CCC1N2C(=O)Cn1nnc(-c2ccccc2F)n1 (stereo not drawn) | -22.9% | 0.164 µM [falling, full curve, poor fit] | 0.731 µM [falling, full curve] |
| CC(C)OC(=O)c1c(N)n(Cc2ccco2)c2nc3ccccc3nc12 | 2.73% |  |  |
| Cc1nn(Cc2ccccc2Cl)c(C)c1C(=O)OCC(=O)NC1CCCC(C)C1C (stereo not drawn) | -8.41% |  | 18.4 µM [rising, single point] |
| Cc1cccc(CN2CCN(c3ccc(Cl)cc3)CC2)c1 | 37.5% | 29.1 µM [rising, single point] |  |
| Nc1nnc(P(c2ccccc2)c2ccccc2)s1 | 8.32% |  | 0.082 µM [rising, full curve, poor fit] |
| CC(Cc1ccccc1)N1Cc2ccccc2C1 (stereo not drawn) | -9.63% |  | 2.91 µM [falling, full curve, poor fit] |
| O=P1(Nn2cnnc2)C=C(c2ccccc2)OC(c2ccccc2)=C1 |  | 32.6 µM [rising, single point] |  |
| COC(=O)[C@@H]1C[C@H]1[C@@H](NP(=O)(c1ccccc1)c1ccccc1)c1ccccc1 | 17% |  | 0.206 µM [rising, full curve, poor fit] |
| COc1ccc(CNCCc2ccc(Cl)cc2Cl)cc1 | 7.87% |  | 4.11 µM [rising, full curve] |
| O=[N+]([O-])c1cc(Cl)c(Cl)cc1Cl | 16.2% |  | 1.16 µM [falling, single point] |
| Cc1cccc(-n2c(O)c(/C=N/NC(=O)c3ccncc3)c(=O)[nH]c2=O)c1 |  |  | 0.58 µM [falling, full curve] |
| O=C(C(=O)N1CCOCC1)c1cn(Cc2ccc(F)cc2)c2ccccc12 | 23.5% |  |  |
| COc1ccc(CN2CCN(c3ccccc3)CC2)c(C)c1C | -32.6% | 29.1 µM [falling, single point] | 29.1 µM [falling, single point] |
| COc1cc(OC)c(OC)cc1CNCCc1cccc(F)c1 | 11.1% |  | 20.6 µM [rising, single point] |
| CC(=O)c1cn(CCCOc2ccccc2)c2ccccc12 | -24.8% |  | 29.1 µM [falling, single point] |
| CN(C)c1ccc(C=C2C(=O)NC(=O)NC2=O)cc1[N+](=O)[O-] | -19.8% | 0.00461 µM [falling, full curve, poor fit] | 0.00461 µM [falling, full curve, poor fit] |
| O=C(CN1CCCCC1)c1ccc2c(c1)OCO2 | -11% |  | 4.11 µM [falling, single point] |
| CCOC(=O)C1=C(N)OC2=C(C(=O)CCC2)C12C(=O)Nc1ccccc12 (stereo not drawn) | -19.7% |  | 0.00461 µM [rising, full curve, poor fit] |
| Cn1cc(C=C2C(=O)NC(=O)NC2=O)c2ccccc21 | 142% | 20.6 µM [rising, partial curve] |  |
| CCCCn1c(O)c(C(CC)=Nc2cccc(C(=O)O)c2)c(=O)[nH]c1=O |  | 4.61 µM [falling, single point] |  |
| COc1cc(OC)c(OC)cc1CN1CCN(C(=O)Cc2ccccc2)CC1 | 2.64% |  | 3.66 µM [rising, full curve] |
| Cc1cc(C)cc(NC2=NCCCS2)c1 | 25.1% |  | 29.1 µM [rising, single point] |
| Cc1ccc(C2NC(=S)NC(c3ccc(C)cc3)C23C(=O)NC(=O)NC3=O)cc1 (stereo not drawn) | -1.29% |  | 18.4 µM [rising, single point] |
| O=C1CN(O)C(c2ccccc2Cl)=c2cc(Br)ccc2=N1 | 28.3% |  |  |
| C[N+]1(C)C2CCC1CC(OC(=O)c1c[nH]c3ccccc13)C2 (stereo not drawn) | -43.1% | 0.259 µM [falling, full curve, poor fit] | 4.11 µM [falling, partial curve] |
| CN(C)c1ccc(C(=O)c2ccc(N(C)C)cc2)cc1 | -30.2% | 18.4 µM [falling, partial curve, poor fit] |  |
| CCOC(=O)C1=C(N)Oc2cc(C)oc(=O)c2C12C(=O)N1c3c(cccc32)C(C)CC1(C)C (stereo not drawn) | -0.574% |  | 29.1 µM [falling, single point] |
| CC(=O)Nc1cc(C(=O)N2CCC3(CC2)OCCO3)ccc1Sc1ccc(F)cc1 | 18.2% |  |  |
| Clc1ccc(C[n+]2c(-c3ccccc3)cc(-c3ccccc3)cc2-c2ccccc2)cc1 | -86.9% | 5.8 µM [falling, partial curve] | 4.11 µM [falling, partial curve] |
| O=C1C2(Cl)C3(Cl)C4(Cl)C(Cl)(Cl)C5(Cl)C3(Cl)C1(Cl)C5(Cl)C24Cl (stereo not drawn) | -87.6% | 4.61 µM [falling, single point] |  |

Copied from the list:
`O=C1CN(O)C(c2ccccc2Cl)=c2cc(Br)ccc2=N1` | cell number change: 28.3%
`Cc1ccc(C2NC(=S)NC(c3ccc(C)cc3)C23C(=O)NC(=O)NC3=O)cc1` (stereo not drawn) | cell number change: -1.29%

Source: PubChem BioAssay AID2685 (National Center for Advancing Translational Sciences (NCATS), 2010)
